Where “and” joins values, the source holds several entries; their conditions need not be identical. Equal entries are not always repeated. Structures can show the parent of a compound that is named as a salt. The list shows a part of the results. The data scatter; read single values as rough.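 Yeast growth was measured as optical density at 600 nm. Two-hybrid strains grew without histidine, so growth depended on Pex3–Pex19 binding. A compound was trypanosome-selective if it reduced growth of the trypanosome-pair strain by over 65% and of the human-pair strain by under 65%.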

Growth inhibition data for 39 molecules are collected here from the supplement of paper PMC8326762, “A Small Molecule Inhibitor of Pex3–Pex19 Interaction Disrupts Glycosome Biogenesis and Causes Lethality in Trypanosoma brucei” (Frontiers in Cell and Developmental Biology, 2021).

This assay deals with T. brucei Pex3-Pex19 interaction (yeast two-hybrid). The experiment in a line: growth inhibition of yeast two-hybrid strain reporting TbPex3-TbPex19 interaction, relative to DMSO; higher = stronger inhibition of T. brucei Pex3-Pex19 interaction / growth. To be noted: 100 µM; 24 h.
Consider `CC(C)Cc1ccc([C@H](C)C(=O)O)cc1` [S(+)-Ibuprofen], for which the growth inhibition was 81.7%.
The value for `CC1=C(/C=C/C(C)=C/C=C/C(C)=C/C(=O)Nc2ccc(O)cc2)C(C)(C)CCC1` [Retinoic acid p-hydroxyanilide] was 25.4%; that for `NC[C@@H]1O[C@H](C23CC4CC(CC(C4)C2)C3)Cc2c1ccc(O)c2O` was 58.6%.
As for `C#CCN(C)CCCOc1ccc(Cl)cc1Cl` [Clorgyline hydrochloride], the growth inhibition turned out to be 72.6%.
The value for `O=c1cc(-c2ccccc2)[nH]c2nc(Cl)ccc12` [7-Chloro-4-hydroxy-2-phenyl-1,8-naphthyridine] was 44%; that for `Cc1cc(O)c2c(c1)C(=O)c1cc(O)cc(O)c1C2=O` [Emodin] was 10.7%; that for `CCOC(=O)[C@H](CCc1ccccc1)N[C@@H](C)C(=O)N1[C@H](C(=O)O)C[C@H]2CCCC[C@@H]21` [Trandolapril] was 68.8%.
The value for `O=C1OC(=O)[C@H]2[C@@H]1[C@@H]1CC[C@H]2O1` [Norcantharidin] was 63.1%; that for `O=C(OCCN1CCOCC1)C1(c2ccccc2)CCCCC1` was 60%.
For `CCSC(=N)N` [S-Ethylisothiourea hydrobromide], the growth inhibition came out at 53.5%.
The value for `O=C(O)CCc1nc(-c2ccccc2)c(-c2ccccc2)o1` [Oxaprozin] was 42.2%; that for `CC(C)(C)NCC(O)c1ccc(O)c(CO)c1` (centres undefined) [Albuterol hemisulfate] was 66.2%; that for `O=C(O)CCC(C(=O)O)N1C(=O)c2ccccc2C1=O` [L-Glutamic acid, N-phthaloyl-] was 38.5%.
`Cn1ccnc1` [1-Methylimidazole]: the growth inhibition was 61.4%.
The value for `O=C(CCc1ccncc1)NNC(=O)N1Cc2ccccc2Oc2ccc(Cl)cc21` was 66.3%; that for `COc1ccc2[nH]cc(CCNC(C)=O)c2c1` [Melatonin] was 68.2%; that for `O=c1[nH]c2cc(C(F)(F)F)ccc2n1-c1cc(C(F)(F)F)ccc1O` was 48.7%.
The value for `O=C1c2c(O)ccc(O)c2C(=O)c2c(NCCNCCO)ccc(NCCNCCO)c21` [Mitoxantrone] was -13.1%; that for `O=C(/C=C/c1ccc(O)cc1)CC(=O)/C=C/c1ccc(O)cc1` [Bisdemethoxycurcumin] was -2.67%.
Turning to `NS(=O)(=O)c1nn2cc(-c3ccccc3)nc2s1`, the growth inhibition turned out to be 42.4%.
Turning to `NC(=O)N1c2ccccc2C=Cc2ccccc21` [Carbamazepine], the growth inhibition was determined as 55.3%.
The value for `COc1ccc2c(c1OC)C(=O)O[C@@H]2[C@H]1c2c(cc3c(c2OC)OCO3)CCN1C` [Noscapine hydrchloride] was 66.7%; that for `O=C1NCCc2[nH]c(-c3ccncc3)cc21` was 59.1%; that for `O=C(O)c1cc(=O)c2c(Cl)cc(Cl)cc2[nH]1` [5,7-Dichlorokynurenic acid] was 69.8%.
The value for `N=C(N)NCCC[C@H](N)C(=O)O` [L-Arginine] was 49.4%; that for `CNC(=N)NCCC[C@H](N)C(=O)O` [NG-Monomethyl-L-arginine acetate] was 66.4%; that for `CCOC(=O)C1=C(C)NC(C)=C(C(=O)OC)C1c1cccc([N+](=O)[O-])c1` (centres undefined) [Nitrendipine] was 76.2%.
As to `CSc1ccc2c(c1)C(N1CCN(C)CC1)Cc1ccccc1S2` (centres undefined) [Methiothepin mesylate], the growth inhibition is 49.8%.
The value for `COC(=O)[C@H]1[C@H]2C[C@@H]3c4[nH]c5cc(OC)ccc5c4CCN3C[C@H]2C[C@@H](OC(=O)c2cc(OC)c(OC)c(OC)c2)[C@@H]1OC` [Reserpine] was 45%; that for `COc1ccc2cc([C@H](C)C(=O)O)ccc2c1` [(-)-Naproxen sodium] was 21.2%; that for `CC(N)(Cc1ccc(O)c(O)c1)C(=O)O` (racemic) [(±)-3-(3,4-dihydroxyphenyl)-2-methyl-DL-alanine] was 59%.
The value for `CC(C)NCC(O)c1ccc(O)c(O)c1` (racemic) [(±)-Isoproterenol hydrochloride] was 59%; that for `CCCCCCCCCCC/C=C\C(C)(C)/C=C\CCCC(=O)O` [7,7-Dimethyl-(5Z,8Z)-eicosadienoic acid] was 64.1%.
For the molecule `Nc1nc(Cl)nc2c1ncn2[C@@H]1O[C@H](COP(=O)(O)OP(=O)(O)OP(=O)(O)O)[C@H](O)C1O` (some centres undefined) [2-Chloroadenosine triphosphate tetrasodium], the growth inhibition was found to be 60%.
The value for `O=C(NCCN1CCOCC1)c1ccc(Cl)cc1` [Moclobemide] was 70.9%.
The value for `CN(C)[C@@H]1C(=O)C(C(N)=O)=C(O)[C@@]2(O)C(=O)C3=C(O)c4c(O)ccc(Cl)c4[C@@H](O)[C@H]3C[C@@H]12` [Demeclocycline hydrochloride] was 47.8%; that for `Nc1ncnc2c1nc(Br)n2C1OC2COP(=O)(O)O[C@@H]2C1O` (some centres undefined) [8-Bromo-cAMP sodium] was 65.8%.
The value for `CCCCS(=N)(=O)CCC(N)C(=O)O` [L-Buthionine-sulfoximine] was 49%; that for `Cc1ccccc1N1C(=O)c2cc(S(N)(=O)=O)c(Cl)cc2NC1C` (centres undefined) [Metolazone] was 60.8% and 68%.
